From PubChem BioAssay AID324 (DTP/NCI, 2004)
The list is a part of this screen's results and no random one: it is rich in T/C values a quarter to a half above the control, in often repeated tests (any T/C) and in doses without a T/C. Other doses and runs of a compound stand elsewhere. T/C is the treated group as % of the vehicle group. Some entries give survivors of the animals treated and no T/C: the source files T/C as zero there, which appears to mark a toxic dose or a test without result, not a measured value. Some survivor counts are full or nearly so, which does not show that the dose was tolerated: survival well below the control is almost never listed, so the zero probably covers shortened survival too. Survivors were counted at the toxicity check, usually on the fifth day, unless a day is given; later deaths do not show. Schedule codes are those of the source, read here as Q, the interval in days (D) or hours (H), X, the number of doses. Some entries were tested several times; the values are given in rising order. For survival time, the PubChem record calls one and a half times the control and up active, and a quarter to a half above the control has no call in these data; cut-offs in other NCI protocols can differ. Some T/C values carry the count of animals alive at the toxicity check (mostly the fifth day); without a count, all were alive then.

System: CD2F1 mice, AMSA-resistant P388 leukemia ip, median survival T/C
Experiment: NCI In Vivo Anticancer Drug Screen. Data for tumor model P388 Leukemia resistant to AMSA; NSC 249992 (intraperitoneal) in CD2F1 (CDF1) mice
Conditions: T/C endpoint: median survival time, higher T/C = longer survival
Protocol: The antitumor activity of compounds was measured in mice bearing transplantable tumors. Survival or tumor size were measured and the results are expressed as the measurement made in the treated group (T) divided by the measurement made in the vehicle treated control group (C). The tumor model used in this assay is P388 Leukemia resistant to AMSA; NSC 249992 (intraperitoneal) in CD2F1 (CDF1) mice

[1] = dose: 3.6 mg/kg/injection, schedule: Q04DX002 (ip), vehicle: saline
[2] = dose: 10.0 mg/kg/injection, schedule: Q04DX002 (ip), vehicle: saline
[3] = dose: 12.0 mg/kg/injection, schedule: Q04DX003 (ip), vehicle: water
[4] = dose: 0.36 mg/kg/injection, schedule: Q04DX003 (ip), vehicle: saline + alcohol
[5] = dose: 0.6 mg/kg/injection, schedule: Q04DX003 (ip), vehicle: saline + alcohol

Compound: COc1cccc2c1C(=O)c1c(O)c3c(c(O)c1C2=O)C[C@@](O)(C(C)=O)C[C@@H]3OC1CC(N(C)C)C(O)C(C)O1 (stereo partly drawn)
- T/C (dose: 2.16 mg/kg/injection, schedule: Q04DX003 (ip), vehicle: water): 132 % of control

Compound: COc1cccc2c1C(=O)c1c(O)c3c(c(O)c1C2=O)C[C@@](O)(C(=O)CO)C[C@@H]3OC1CC(N)C(O)C(C)O1 (stereo partly drawn)
- T/C (dose: 1.62 mg/kg/injection, schedule: Q04DX003 (ip), vehicle: saline): 137 % of control
- T/C (dose: 2.16 mg/kg/injection, schedule: Q04DX002 (ip), vehicle: saline): 138 % of control
- T/C (dose: 2.7 mg/kg/injection, schedule: Q04DX003 (ip), vehicle: saline): 147 % of control
- T/C [1]: 138 % of control
- survivor count [1]: 8 of 8
- T/C (dose: 4.5 mg/kg/injection, schedule: Q04DX003 (ip), vehicle: saline): 126 % of control
- T/C (dose: 6.0 mg/kg/injection, schedule: Q04DX002 (ip), vehicle: saline): 137 % of control
- T/C (dose: 7.5 mg/kg/injection, schedule: Q04DX003 (ip), vehicle: saline, evaluated on day 30): 146 % of control
- T/C (dose: 7.5 mg/kg/injection, schedule: Q04DX003 (ip), vehicle: saline, evaluated on day 45): 141 % of control
- T/C [2]: 141 % of control
- survivor count [2]: 8 of 8

Compound: O=P1(N(CCCl)CCCl)NCCCO1 (stereo not drawn)
- survivor count (dose: 250.0 mg/kg/injection, schedule: Q04DX002 (ip), vehicle: saline): 8 of 8

Compound: CC(CN1CC(=O)NC(=O)C1)N1CC(=O)NC(=O)C1 (stereo not drawn)
- T/C (dose: 64.8 mg/kg/injection, schedule: Q04DX003 (ip), vehicle: saline): 130 % of control
- T/C (dose: 108.0 mg/kg/injection, schedule: Q04DX003 (ip), vehicle: saline): 135 % of control
- T/C (dose: 180.0 mg/kg/injection, schedule: Q04DX003 (ip), vehicle: saline): 140 % of control
- survivor count (dose: 500.0 mg/kg/injection, schedule: Q04DX003 (ip), vehicle: saline): 8 of 8

Compound: CC1OC(OC2CC(O)(C(=O)CO)Cc3c(O)c4c(c(O)c32)C(=O)c2ccccc2C4=O)CC(N)C1O (stereo not drawn)
- T/C (dose: 0.36 mg/kg/injection, schedule: Q04DX003 (ip), vehicle: water): 130 % of control

Compound: CCN(CC)C1CC(O[C@H]2C[C@](O)(C(C)=O)Cc3c(O)c4c(c(O)c32)C(=O)c2c(OC)cccc2C4=O)OC(C)C1O (stereo partly drawn)
- T/C (dose: 7.2 mg/kg/injection, schedule: Q04DX003 (ip), vehicle: water): 132 % of control
- T/C [3]: 138 % of control
- survivor count (dose: 33.3 mg/kg/injection, schedule: Q04DX003 (ip), vehicle: water): 8 of 8

Compound: CCC1(O)CC2CN(CCc3c([nH]c4ccccc34)C(C(=O)OC)(c3cc4c(cc3OC)N(C)C3C(O)(C(N)=O)C(O)C5(CC)C=CCN6CCC43C65)C2)C1 (stereo not drawn) (tested in a mixture with another compound)
- T/C (dose: 0.11 mg/kg/injection, schedule: Q04DX003 (ip), vehicle: clinical formulation): 140 % of control
- T/C (dose: 0.18 mg/kg/injection, schedule: Q04DX003 (ip), vehicle: clinical formulation): 146 % of control
- T/C (dose: 0.3 mg/kg/injection, schedule: Q04DX003 (ip), vehicle: clinical formulation): 146 % of control

Compound: COc1cccc2c1C(=O)c1c(O)c3c(c(O)c1C2=O)C[C@@](O)(C(=O)CO)C[C@@H]3OC1CC(NCc2ccccc2)C(O)C(C)O1 (stereo partly drawn)
- T/C (dose: 6.48 mg/kg/injection, schedule: Q04DX003 (ip), vehicle: water): 126 % of control
- T/C (dose: 10.8 mg/kg/injection, schedule: Q04DX003 (ip), vehicle: water): 138 % of control
- T/C (dose: 18.0 mg/kg/injection, schedule: Q04DX003 (ip), vehicle: water): 131 % of control

Compound: O=c1[nH]cc(F)c(=O)[nH]1
- T/C (dose: 13.0 mg/kg/injection, schedule: Q04DX003 (ip), vehicle: saline): 134 % of control

Compound: CCN(CC)CCNc1ccc(C)c2sc3ccccc3c(=O)c12
- survivor count (dose: 32.4 mg/kg/injection, schedule: Q01DX005 (ip), vehicle: water): 7 of 8
- survivor count (dose: 150.0 mg/kg/injection, schedule: Q01DX005 (ip), vehicle: water): 3 of 8

Compound: COc1cc(NS(C)(=O)=O)ccc1Nc1c2ccccc2nc2ccccc12
- survivor count (dose: 0.52 mg/kg/injection, schedule: Q01DX009 (ip), vehicle: other): 7 of 8
- survivor count (dose: 0.86 mg/kg/injection, schedule: Q01DX009 (ip), vehicle: other): 8 of 8
- survivor count (dose: 1.44 mg/kg/injection, schedule: Q01DX009 (ip), vehicle: other): 8 of 8
- survivor count (dose: 2.4 mg/kg/injection, schedule: Q01DX009 (ip), vehicle: other): 8 of 8
- survivor count (dose: 4.0 mg/kg/injection, schedule: Q01DX009 (ip), vehicle: other): 8 of 8
- survivor count (dose: 6.67 mg/kg/injection, schedule: Q01DX009 (ip), vehicle: other): 8 of 8
- T/C (dose: 12.0 mg/kg/injection, schedule: Q04DX003 (ip), vehicle: clinical formulation): 131 % of control
- T/C (dose: 12.0 mg/kg/injection, schedule: Q04DX003 (ip), vehicle: saline with Tween-80): 126 % of control
- survivor count [3]: 6 of 8
- T/C (dose: 15.0 mg/kg/injection, schedule: Q04DX003 (ip), vehicle: saline with Tween-80): 132 % of control
- survivor count (dose: 20.0 mg/kg/injection, schedule: Q04DX003 (ip), vehicle: clinical formulation): 5 of 8
- survivor count (dose: 20.0 mg/kg/injection, schedule: Q04DX003 (ip), vehicle: other): 4 of 8 and 8 of 8
- survivor count (dose: 20.0 mg/kg/injection, schedule: Q04DX003 (ip), vehicle: water): 5 of 8 and 7 of 8
- T/C (dose: 40.0 mg/kg/injection, schedule: Q01DX001 (ip), vehicle: saline with Tween-80): 142 % of control
- T/C (dose: 60.0 mg/kg/injection, schedule: Q01DX001 (ip), vehicle: saline with Tween-80): 149 % of control

Compound: COc1cc2c[n+](C)c3c4cc5c(cc4ccc3c2cc1OC)OCO5
- T/C (dose: 72.0 mg/kg/injection, schedule: Q04DX003 (ip), vehicle: distilled water + Tween-80): 132 % of control [7 of 8 alive]
- survivor count (dose: 200.0 mg/kg/injection, schedule: Q04DX003 (ip), vehicle: distilled water + Tween-80): 5 of 8

Compound: CC[C@](O)(C(=O)O)c1cc2n(c(=O)c1CO)Cc1cc3ccccc3nc1-2
- T/C (dose: 6.48 mg/kg/injection, schedule: Q04DX003 (ip), vehicle: saline): 137 % of control
- T/C (dose: 10.8 mg/kg/injection, schedule: Q04DX003 (ip), vehicle: saline): 149 % of control

Compound: CO[C@H]1Nc2c(ccc(C)c2O)C(=O)N2C=C(/C=C/C(N)=O)C[C@@H]12
- T/C (dose: 0.13 mg/kg/injection, schedule: Q04DX003 (ip), vehicle: saline + alcohol): 128 % of control
- T/C (dose: 0.22 mg/kg/injection, schedule: Q04DX003 (ip), vehicle: saline + alcohol, evaluated on day 30): 126 % of control [7 of 8 alive]
- T/C (dose: 0.22 mg/kg/injection, schedule: Q04DX003 (ip), vehicle: saline + alcohol, evaluated on day 45): 129 % of control
- T/C [4]: 133 % of control
- survivor count [4]: 8 of 8
- T/C [5]: 149 % of control
- survivor count [5]: 1 of 8
- survivor count (dose: 1.0 mg/kg/injection, schedule: Q04DX003 (ip), vehicle: saline + alcohol): 0 of 8

Compound: COc1c(O)c2c(c3cc(C(=O)N4CCc5c4c(O)c(OC)c4[nH]c(C(=O)N6CC7CC78C6=CC(=O)c6[nH]cc(C)c68)cc54)[nH]c13)CCN2C(N)=O (stereo not drawn)
- T/C (dose: 0.11 mg/kg/injection, schedule: Q01DX001 (ip), vehicle: DMSO): 133 % of control
- survivor count (dose: 0.3 mg/kg/injection, schedule: Q01DX001 (ip), vehicle: DMSO): 8 of 8

Compound: CN(C)c1ccc(Nc2c3ccccc3nc3ccccc23)cc1
- survivor count (dose: 120.0 mg/kg/injection, schedule: Q04DX003 (ip), vehicle: saline): 6 of 8
- survivor count (dose: 200.0 mg/kg/injection, schedule: Q04DX003 (ip), vehicle: saline): 0 of 8

Compound: CC(=O)N(C)c1ccc(Nc2cc(C)[nH]c3ccc4ncnc4c23)cc1
- survivor count (dose: 150.0 mg/kg/injection, schedule: Q04DX002 (ip), vehicle: saline): 3 of 8
- survivor count (dose: 160.0 mg/kg/injection, schedule: Q04DX002 (ip), vehicle: saline): 6 of 8
